Measurements taken from article doi:10.1101/2020.08.27.268672 (bioRxiv, 2020).
No constants are given. Whether binding was seen depends on the method and setting. Some entries that bind do so weakly or less than the wild type. Where a sequence is shown, tags or fusion partners need not be part of it.

Target: DarB fused to the T18 or T25 domain of CyaA (Bacillus subtilis 168) (UniProt O31698)
Test: two-hybrid

B1: DarB fused to the T18 or T25 domain of CyaA (protein, UniProt O31698 2-147)
chain: ISLQSDQLLEATVGQFMIEADKVAHVQVGNNLEHALLVLTKTGYTAIPVLDPSYRLHGLIGTNMIMNSIFGLERIEFEKLDQITVEEVMLTDIPRLHINDPIMKGFGMVINNGFVCVENDEQVFEGIFTRRVVLKELNKHIRSLNK
binding: binds
